# Results taken from PubChem BioAssay AID328 (DTP/NCI, 2004).
# The list is a part of this screen's results and no random one: its compounds were picked by chemical class. Other doses and runs of a compound may be missing. T/C is the treated group as % of the vehicle group. For survival time, this PubChem deposit counts one and a half times the control or more as active, and values a quarter to a half above the control carry no call in these data; other NCI protocols may use other cut-offs. Some T/C values are marked as having no survivor count here; that says nothing about deaths at the dose. Schedules are NCI's codes, taken here to give the interval after Q, in days (D) or hours (H), and the number of doses after X. Marks such as (2×) count equal records among those shown. Some entries hold several experiments; the values are given in rising order.
# Tested on: BDF1 mice, P388 leukemia ip, median survival T/C
# Assay: NCI In Vivo Anticancer Drug Screen. Data for tumor model P388 Leukemia (intraperitoneal) in B6D2F1 (BDF1) mice
# Details: T/C endpoint: median survival time, higher T/C = longer survival
# Procedure, shortened: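 Transplantable tumour in mice; compound vs vehicle dosing; survival scored; ratio of treated to control reported.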
smiles,measurement,setting,value
O=C(O)CN(CCCl)CCCl,T/C,"dose: 0.31 mg/kg/injection, schedule: Q01DX010 (ip), vehicle: saline",127 % of control [survivor count not shown] (2×)
same,T/C,"dose: 0.62 mg/kg/injection, schedule: Q01DX010 (ip), vehicle: saline",145 [survivor count not shown] and 154 % of control [survivor count not shown]
same,T/C,"dose: 0.63 mg/kg/injection, schedule: Q01DX010 (ip), vehicle: saline",195 [survivor count not shown] and 200 % of control [survivor count not shown]
same,T/C,"dose: 1.25 mg/kg/injection, schedule: Q01DX010 (ip), vehicle: saline","145 [survivor count not shown], 159 [survivor count not shown], 200 [survivor count not shown], 205 % of control [survivor count not shown]"
same,T/C,"dose: 2.5 mg/kg/injection, schedule: Q01DX010 (ip), vehicle: saline","204 [survivor count not shown], 215 [survivor count not shown] (2×), 254 % of control [survivor count not shown]"
same,T/C,"dose: 5.0 mg/kg/injection, schedule: Q01DX010 (ip), vehicle: saline","130 [survivor count not shown], 213 [survivor count not shown], 231 % of control [survivor count not shown]"
ClCCNCCCl,T/C,"dose: 18.8 mg/kg/injection, schedule: Q01DX010 (ip), vehicle: saline",104 [survivor count not shown] and 150 % of control [survivor count not shown]
same,T/C,"dose: 37.5 mg/kg/injection, schedule: Q01DX010 (ip), vehicle: saline",186 [survivor count not shown] and 210 % of control [survivor count not shown]
ClCCN(CCCl)CCSc1nc2ccccc2[nH]1,T/C,"dose: 100.0 mg/kg/injection, schedule: Q01DX001 (ip), vehicle: saline with Tween-80",90 % of control [survivor count not shown]
CN(C)c1ccc(N(CCCl)CCCl)cc1,T/C,"dose: 6.25 mg/kg/injection, schedule: Q01DX001 (ip), vehicle: saline",142 % of control [survivor count not shown]
same,T/C,"dose: 12.5 mg/kg/injection, schedule: Q01DX001 (ip), vehicle: saline",145 % of control [survivor count not shown]
same,T/C,"dose: 25.0 mg/kg/injection, schedule: Q01DX001 (ip), vehicle: saline",106 % of control [survivor count not shown]
Cc1cccc(CN(CCCl)CCCl)c1,T/C,"dose: 0.63 mg/kg/injection, schedule: Q01DX009 (ip), vehicle: Klucel (hydroxypropylcellulose) (HPC)",148 % of control [survivor count not shown]
same,T/C,"dose: 0.68 mg/kg/injection, schedule: Q01DX009 (ip), vehicle: Klucel (hydroxypropylcellulose) (HPC)",95 % of control [survivor count not shown]
same,T/C,"dose: 1.0 mg/kg/injection, schedule: Q01DX009 (ip), vehicle: Klucel (hydroxypropylcellulose) (HPC)",125 % of control [survivor count not shown]
same,T/C,"dose: 1.25 mg/kg/injection, schedule: Q01DX009 (ip), vehicle: Klucel (hydroxypropylcellulose) (HPC)",149 % of control [survivor count not shown]
same,T/C,"dose: 1.56 mg/kg/injection, schedule: Q01DX009 (ip), vehicle: Klucel (hydroxypropylcellulose) (HPC)",150 % of control [survivor count not shown]
same,T/C,"dose: 2.5 mg/kg/injection, schedule: Q01DX009 (ip), vehicle: Klucel (hydroxypropylcellulose) (HPC)",158 [survivor count not shown] and 170 % of control [survivor count not shown]
same,T/C,"dose: 2.5 mg/kg/injection, schedule: Q01DX009 (ip), vehicle: saline",105 % of control [survivor count not shown]
same,T/C,"dose: 3.12 mg/kg/injection, schedule: Q01DX009 (ip), vehicle: Klucel (hydroxypropylcellulose) (HPC)",150 % of control [survivor count not shown]
same,T/C,"dose: 4.17 mg/kg/injection, schedule: Q01DX009 (ip), vehicle: Klucel (hydroxypropylcellulose) (HPC)",170 % of control [survivor count not shown]
same,T/C,"dose: 5.0 mg/kg/injection, schedule: Q01DX009 (ip), vehicle: Klucel (hydroxypropylcellulose) (HPC)",170 [survivor count not shown] and 197 % of control [survivor count not shown]
same,T/C,"dose: 5.0 mg/kg/injection, schedule: Q01DX009 (ip), vehicle: saline",104 % of control [survivor count not shown]
same,T/C,"dose: 6.25 mg/kg/injection, schedule: Q01DX009 (ip), vehicle: Klucel (hydroxypropylcellulose) (HPC)",155 [survivor count not shown] and 175 % of control [survivor count not shown]
same,T/C,"dose: 9.2 mg/kg/injection, schedule: Q01DX009 (ip), vehicle: Klucel (hydroxypropylcellulose) (HPC)",108 % of control [survivor count not shown]
same,T/C,"dose: 9.37 mg/kg/injection, schedule: Q01DX009 (ip), vehicle: Klucel (hydroxypropylcellulose) (HPC)",190 % of control [survivor count not shown]
same,T/C,"dose: 10.0 mg/kg/injection, schedule: Q01DX009 (ip), vehicle: saline",103 % of control [survivor count not shown]
same,T/C,"dose: 20.0 mg/kg/injection, schedule: Q01DX009 (ip), vehicle: saline",108 % of control [survivor count not shown]
BrCCN(CCBr)c1ccc2c(c1)Cc1ccccc1-2,T/C,"dose: 0.59 mg/kg/injection, schedule: Q01DX009 (ip), vehicle: saline with Tween-80",119 % of control [survivor count not shown]
same,T/C,"dose: 0.88 mg/kg/injection, schedule: Q01DX009 (ip), vehicle: saline with Tween-80",169 % of control [survivor count not shown]
same,T/C,"dose: 1.33 mg/kg/injection, schedule: Q01DX009 (ip), vehicle: saline with Tween-80",150 % of control [survivor count not shown]
same,T/C,"dose: 1.78 mg/kg/injection, schedule: Q01DX009 (ip), vehicle: saline with Tween-80",154 % of control [survivor count not shown]
same,T/C,"dose: 2.0 mg/kg/injection, schedule: Q01DX009 (ip), vehicle: saline with Tween-80",146 % of control [survivor count not shown]
same,T/C,"dose: 2.2 mg/kg/injection, schedule: Q01DX009 (ip), vehicle: saline with Tween-80",164 % of control [survivor count not shown]
same,T/C,"dose: 2.66 mg/kg/injection, schedule: Q01DX009 (ip), vehicle: saline with Tween-80",194 % of control [survivor count not shown]
same,T/C,"dose: 3.3 mg/kg/injection, schedule: Q01DX009 (ip), vehicle: saline with Tween-80",207 % of control [survivor count not shown]
same,T/C,"dose: 4.0 mg/kg/injection, schedule: Q01DX009 (ip), vehicle: saline with Tween-80",187 % of control [survivor count not shown]
same,T/C,"dose: 5.0 mg/kg/injection, schedule: Q01DX009 (ip), vehicle: saline with Tween-80",191 % of control [survivor count not shown]
same,T/C,"dose: 5.33 mg/kg/injection, schedule: Q01DX009 (ip), vehicle: saline with Tween-80",196 % of control [survivor count not shown]
same,T/C,"dose: 6.0 mg/kg/injection, schedule: Q01DX009 (ip), vehicle: saline with Tween-80",208 % of control [survivor count not shown]
same,T/C,"dose: 7.5 mg/kg/injection, schedule: Q01DX009 (ip), vehicle: saline with Tween-80",216 % of control [survivor count not shown]
same,T/C,"dose: 8.0 mg/kg/injection, schedule: Q01DX009 (ip), vehicle: saline with Tween-80",219 % of control [survivor count not shown]
same,T/C,"dose: 12.0 mg/kg/injection, schedule: Q01DX009 (ip), vehicle: saline with Tween-80",226 % of control [survivor count not shown]
same,T/C,"dose: 16.5 mg/kg/injection, schedule: Q01DX009 (ip), vehicle: saline with Tween-80",165 % of control [survivor count not shown]
same,T/C,"dose: 18.0 mg/kg/injection, schedule: Q01DX009 (ip), vehicle: saline with Tween-80",245 % of control [survivor count not shown]
same,T/C,"dose: 25.0 mg/kg/injection, schedule: Q01DX009 (ip), vehicle: saline with Tween-80",192 % of control [survivor count not shown]
same,T/C,"dose: 37.5 mg/kg/injection, schedule: Q01DX009 (ip), vehicle: saline with Tween-80",215 % of control [survivor count not shown]
same,T/C,"dose: 100.0 mg/kg/injection, schedule: Q04DX003 (ip), vehicle: Klucel (hydroxypropylcellulose) (HPC)",140 % of control [survivor count not shown]
same,T/C,"dose: 200.0 mg/kg/injection, schedule: Q04DX003 (ip), vehicle: Klucel (hydroxypropylcellulose) (HPC)",151 % of control [survivor count not shown]
same,T/C,"dose: 400.0 mg/kg/injection, schedule: Q04DX003 (ip), vehicle: Klucel (hydroxypropylcellulose) (HPC)",196 % of control [survivor count not shown]
